Reference: publication PMC2777311
Results are given in words; binding and its absence hold for the method and conditions named. For some assays here: Binding seen in cells or lysates may run through a third protein. Some entries that bind do so weakly or less than the wild type. Tags and fused reporters may be left off the sequences shown.

Sequences of proteins named here, by UniProt entry; tags and fusion partners are left off.
UniProt P46940: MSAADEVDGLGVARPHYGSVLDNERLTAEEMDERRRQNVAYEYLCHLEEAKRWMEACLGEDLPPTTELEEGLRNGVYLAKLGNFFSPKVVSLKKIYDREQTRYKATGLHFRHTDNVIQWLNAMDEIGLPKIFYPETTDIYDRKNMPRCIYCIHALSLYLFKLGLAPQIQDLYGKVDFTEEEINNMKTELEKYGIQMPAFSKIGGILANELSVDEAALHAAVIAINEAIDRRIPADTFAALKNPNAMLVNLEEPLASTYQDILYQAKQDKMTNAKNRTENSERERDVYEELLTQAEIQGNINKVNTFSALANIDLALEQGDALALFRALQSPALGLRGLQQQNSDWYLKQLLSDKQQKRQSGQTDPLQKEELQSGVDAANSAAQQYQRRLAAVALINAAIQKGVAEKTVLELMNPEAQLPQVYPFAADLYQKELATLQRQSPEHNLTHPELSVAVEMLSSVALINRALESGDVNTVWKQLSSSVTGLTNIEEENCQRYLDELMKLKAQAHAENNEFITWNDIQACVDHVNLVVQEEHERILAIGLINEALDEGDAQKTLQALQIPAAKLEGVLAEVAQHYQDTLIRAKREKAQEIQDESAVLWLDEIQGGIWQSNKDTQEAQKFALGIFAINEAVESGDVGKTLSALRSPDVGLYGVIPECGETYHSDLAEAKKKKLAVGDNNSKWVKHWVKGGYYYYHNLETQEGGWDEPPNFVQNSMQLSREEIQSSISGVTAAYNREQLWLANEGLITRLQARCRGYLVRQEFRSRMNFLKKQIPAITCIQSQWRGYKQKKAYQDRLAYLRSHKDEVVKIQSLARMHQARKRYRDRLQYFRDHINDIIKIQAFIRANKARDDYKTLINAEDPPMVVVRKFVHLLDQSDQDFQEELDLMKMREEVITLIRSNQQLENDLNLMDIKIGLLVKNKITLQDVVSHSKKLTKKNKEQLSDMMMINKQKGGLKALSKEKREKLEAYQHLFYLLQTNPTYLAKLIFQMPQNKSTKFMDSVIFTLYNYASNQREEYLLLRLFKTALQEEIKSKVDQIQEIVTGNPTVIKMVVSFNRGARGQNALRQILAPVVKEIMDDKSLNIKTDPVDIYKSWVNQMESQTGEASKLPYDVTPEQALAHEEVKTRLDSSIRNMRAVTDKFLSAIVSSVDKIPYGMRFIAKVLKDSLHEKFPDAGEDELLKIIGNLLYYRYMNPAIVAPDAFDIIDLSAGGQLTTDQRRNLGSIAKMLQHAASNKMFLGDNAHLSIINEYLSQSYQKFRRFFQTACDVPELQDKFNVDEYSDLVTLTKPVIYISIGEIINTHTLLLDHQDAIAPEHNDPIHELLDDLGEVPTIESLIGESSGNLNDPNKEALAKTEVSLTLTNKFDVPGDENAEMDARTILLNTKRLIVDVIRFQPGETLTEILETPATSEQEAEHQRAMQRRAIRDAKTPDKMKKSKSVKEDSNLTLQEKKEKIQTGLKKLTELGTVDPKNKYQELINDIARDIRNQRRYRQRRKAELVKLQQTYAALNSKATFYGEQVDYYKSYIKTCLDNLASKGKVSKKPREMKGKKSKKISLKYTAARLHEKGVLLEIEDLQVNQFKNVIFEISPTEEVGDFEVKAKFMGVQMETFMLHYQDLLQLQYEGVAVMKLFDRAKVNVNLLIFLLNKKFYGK

Key:
[1] = target: T1, His-tagged SseI (WT) (S. typhimurium SL1344) (UniProt Q8ZQ79); experiment: pull-down; free IQGAP1 (GST cleaved by TEV protease) combined with resin-bound His-SseI or His-PipB in lysis/binding buffer, overnight at 4 °C; immunoblot with anti-IQGAP1 antibody; both purified
T1 sequence: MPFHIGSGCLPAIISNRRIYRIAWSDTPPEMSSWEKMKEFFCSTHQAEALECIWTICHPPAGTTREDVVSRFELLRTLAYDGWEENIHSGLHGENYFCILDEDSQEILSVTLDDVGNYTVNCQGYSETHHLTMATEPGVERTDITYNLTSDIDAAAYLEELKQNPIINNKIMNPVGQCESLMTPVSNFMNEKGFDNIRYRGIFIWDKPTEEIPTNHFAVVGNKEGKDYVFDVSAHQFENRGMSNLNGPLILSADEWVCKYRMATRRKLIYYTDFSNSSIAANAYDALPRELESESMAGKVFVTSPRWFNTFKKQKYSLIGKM

His-PipB = target: T2, His-PipB (UniProt Q8ZQ59); experiment: as above
T2 sequence: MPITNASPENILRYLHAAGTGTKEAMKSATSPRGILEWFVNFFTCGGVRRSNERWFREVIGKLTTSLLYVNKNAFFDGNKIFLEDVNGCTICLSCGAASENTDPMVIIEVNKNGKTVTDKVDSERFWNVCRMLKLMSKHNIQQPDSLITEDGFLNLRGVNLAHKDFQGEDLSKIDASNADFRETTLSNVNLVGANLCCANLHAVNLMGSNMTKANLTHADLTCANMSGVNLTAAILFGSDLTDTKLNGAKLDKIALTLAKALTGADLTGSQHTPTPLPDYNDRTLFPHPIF

GST-IQGAP1 [2] = target: GST-IQGAP1 (UniProt P46940); experiment: pull-down; increasing amounts of E. coli extracts over-expressing His-tagged SseI proteins (WT and C178A) incubated with GST or GST-IQGAP1, co-precipitated with GSH-agarose resin; immunoblot with anti-His antibody; only the target purified
GST-IQGAP1 [3] = target: GST-IQGAP1 (UniProt P46940); experiment: pull-down; resin-bound GST-IQGAP1 (or GST alone) on GSH-resin incubated with free purified His-SseI proteins overnight at 4 °C; washed 5 times with lysis/binding buffer; immunoblot with anti-His tag antibody; both purified
[4] = target: T3, cya-tagged SseI (S. typhimurium SL1344) (UniProt Q8ZQ79); experiment: co-IP; BMDM (caspase-1-/-) infected (MOI of 25) with S. typhimurium with or without psseI-cya; at 6h proteins immunoprecipitated with anti-CyaA antibody and immunoblotted for IQGAP1 or TRIP6
T3 sequence: T1 sequence

With “free IQGAP1 (from UniProt P46940 1-1657)” the binding [1] was “binds” and the binding (His-PipB) was “no binding”.

B1: His-tagged SseI (WT) (protein, UniProt Q8ZQ79 1-322)
chain: T1 sequence
B1 was tested, and the binding (GST-IQGAP1 [2]) was “binds” and the binding (GST-IQGAP1 [3]) was “binds”.

B2: TRIP6, endogenous in BMDM (protein, UniProt Q9Z1Y4 1-480)
chain: MSGPTWLPPKQPEPSRLPQGRSLPRGALGPPTAHGATLQPHPRVNFCPLPPEHCYQPPGVPEDRGPTWVGSHGTPQRLQGLPPDRGIIRPGSLDAEIDSLTSMLADLDGGRSHAPRRPDRQAFEAPPPHAYRGGSLKPSGGAVPTPMLPASHYGGPTPASYATASTPAGPAFPVQVKVAQPVRGCGLPRRGASQASGPLPGPHFPLTGRGEVWGAGYRSHREPGPGVPEGPSGVHIPAGGGRGGGHEPQGPLGQPPEEELERLTKKLVHDMSHPPSGEYFGRCGGCGEDVVGDGAGVVALDRVFHIGCFVCSTCRAQLRGQHFYAVERRAYCESCYVATLEKCSTCSEPILDRILRAMGKAYHPGCFTCVVCHRGLDGIPFTVDATSQIHCIEDFHRKFAPRCSVCGGAIMPEPGQEETVRIVALDRSFHIGCYKCEECGLLLSSEGECQGCYPLDGHILCKACSAWRIQELSATVTTDC
For B2, the binding [4] was “no binding”.
